Results are given in words; binding and its absence hold for the method and conditions named. Binding seen in cells or lysates may run through a third protein. Some entries that bind do so weakly or less than the wild type. For part of these data: Tags and fused reporters may be left off the sequences shown.
Tests used:
[1] = target: T1, HA-XBP1u (unspliced X-box-binding protein 1, from pCMV5-HA-XBP1u) (UniProt P17861); assay: co-IP; HEK293 cells co-transfected with HA-XBP1u and FLAG-HDAC3 plasmids; immunoprecipitation with anti-HA antibody, Western blot with anti-FLAG and anti-HA; 1 mg lysate per immunoprecipitation
T1 sequence: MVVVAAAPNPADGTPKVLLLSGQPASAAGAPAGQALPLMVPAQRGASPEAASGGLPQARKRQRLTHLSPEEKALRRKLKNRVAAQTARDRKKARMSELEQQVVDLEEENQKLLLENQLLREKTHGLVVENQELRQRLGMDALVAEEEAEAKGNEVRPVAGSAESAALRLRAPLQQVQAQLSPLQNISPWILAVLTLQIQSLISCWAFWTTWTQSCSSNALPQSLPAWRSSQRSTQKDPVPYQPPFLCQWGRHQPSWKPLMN

Chains of the proteins cited; added tags and fusions are not shown.
UniProt O15379: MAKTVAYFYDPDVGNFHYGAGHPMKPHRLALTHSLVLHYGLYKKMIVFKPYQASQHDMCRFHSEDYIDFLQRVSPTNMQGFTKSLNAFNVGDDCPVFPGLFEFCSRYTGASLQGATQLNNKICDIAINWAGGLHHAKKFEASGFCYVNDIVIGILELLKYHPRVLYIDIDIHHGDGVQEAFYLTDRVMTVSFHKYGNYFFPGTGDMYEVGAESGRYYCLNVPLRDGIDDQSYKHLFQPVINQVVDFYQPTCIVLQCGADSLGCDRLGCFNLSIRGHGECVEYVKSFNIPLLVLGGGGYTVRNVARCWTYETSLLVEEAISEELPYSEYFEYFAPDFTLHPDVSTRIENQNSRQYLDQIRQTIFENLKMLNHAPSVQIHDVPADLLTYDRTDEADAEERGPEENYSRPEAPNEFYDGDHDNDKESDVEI
UniProt P31749: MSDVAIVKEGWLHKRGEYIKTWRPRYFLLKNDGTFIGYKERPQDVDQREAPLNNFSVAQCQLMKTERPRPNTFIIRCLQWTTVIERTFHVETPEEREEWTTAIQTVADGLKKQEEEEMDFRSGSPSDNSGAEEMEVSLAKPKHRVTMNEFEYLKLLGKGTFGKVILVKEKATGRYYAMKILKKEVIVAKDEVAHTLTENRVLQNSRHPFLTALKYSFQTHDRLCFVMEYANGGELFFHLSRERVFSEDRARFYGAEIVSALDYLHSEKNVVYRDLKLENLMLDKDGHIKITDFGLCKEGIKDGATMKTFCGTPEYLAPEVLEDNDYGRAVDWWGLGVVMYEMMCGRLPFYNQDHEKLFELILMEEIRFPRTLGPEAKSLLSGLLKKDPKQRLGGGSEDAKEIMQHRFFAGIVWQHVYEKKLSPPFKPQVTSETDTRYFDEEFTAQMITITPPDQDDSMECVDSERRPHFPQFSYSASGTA

[2] = target: T2, endogenous unspliced X-box-binding protein 1 (XBP1u) (human (endogenous in HUVECs)) (UniProt P17861); assay: co-IP; endogenous proteins; immunoprecipitation with anti-XBP1u antibody from static and disturbed flow (4 h)-treated cells, Western blot with anti-HDAC3, anti-Akt1 and anti-XBP1u; association increased by disturbed flow
T2 sequence: T1 sequence

Row | binding [1] | binding [2] | Substance
1 | binds |  | FLAG-HDAC3 (histone deacetylase 3, from pShuttle2-FLAG-HDAC3) (from UniProt O15379 1-428)
2 |  | binds | endogenous Akt1 (from UniProt P31749 1-480)
3 |  | binds | endogenous histone deacetylase 3 (HDAC3) (from UniProt O15379 1-428)
